The structures appear in SMILES notation. The list shows a part of the results. Further columns of the screen follow, without active or inactive calls. Compounds called inactive in the main read-out are mostly missing here.

The test is described as follows: hepatocyte lipid droplet accumulation inhibitors, confirmation, imaging, AML12 mouse hepatocytes, single concentration, high-content (AID 463183).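 Also: cells counted after overnight compound exposure.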 As to conditions: BODIPY lipid droplet imaging, measured here: cell count, cytotoxicity, at 5.2 µM, droplets induced with 100 µM oleic acid.
The molecule `CN(C1=C(N2CCCCC2)C(=O)c2ccccc2C1=O)c1ccccc1` registered a cell count of 1510 cells.

As for `CCOc1ccc(CCNC(=O)CCNS(=O)(=O)c2ccc(Br)cc2)cc1OCC`, the cell count was 1640 cells.

`O=C1CSC(c2cn(-c3ccccc3)nc2-c2ccccc2)N1Cc1ccco1` (stereo not given) came in with a cell count of 1640 cells.

`COc1ccc(CCNC(=O)CN2C(=O)c3cccc4cccc(c34)C2=O)cc1OC` registered a cell count of 1590 cells.

`COc1ccc(S(=O)(=O)N(CC(=O)N2CCCCCC2)c2ccccc2OC)cc1` displayed a cell count of 1670 cells.

In turn, `CCCCCCNC(=O)c1cn(CC)c2cc(N3CCN(C)CC3)c(F)cc2c1=O` displayed a cell count of 1520 cells.

With `C#CC(=O)N(c1ccc(OC)c(OC)c1)C(C(=O)NC1CCCC1)c1cccs1` (stereo not given), the cell count was 7.5 cells.

Regarding `CCc1cc2c(=O)c(-c3nc4ccccc4n3C)c(C)oc2c(CN2CCOCC2)c1O`, the cell count worked out at 1600 cells.

Take `CCOC(=O)c1ccc(S(=O)(=O)NCC(c2ccc(N(C)C)cc2)c2c[nH]c3ccccc23)cc1` (stereo not given): the cell count was determined as 1630 cells.

`Cc1ccc(-n2nc3c(=O)n(C(C)C(=O)NCCc4cccs4)nc(C)c3c2C)cc1` (stereo not given): the cell count was 1580 cells.

In the case of `O=C(NC1CCCc2c1cnn2-c1ccccc1F)c1ccccn1` (stereo not given), the cell count was determined as 1510 cells.

For `CC(C)c1ccccc1NC(=O)COC(=O)c1c2c(nc3ccccc13)CCN(Cc1ccccc1)C2`, the cell count is 1570 cells.

The molecule `Cc1cccc(NC(=O)CSc2nnc(C)c(=O)n2N)c1` came in with a cell count of 1570 cells.

In turn, `Cc1ccc(N=Nc2ccc3ccccc3c2O)cc1` gave a cell count of 1620 cells.

On to `CC(C)c1cc(C(=O)N2CCCC(CCC(=O)NCc3ccccc3F)C2)n(C)n1` (stereo not given), for which the cell count is 1580 cells.

`CCCSC1=C(C#N)C(c2cccs2)C(C(=O)Nc2ccccc2)=C(C)N1` (stereo not given) came in with a cell count of 1550 cells.

Turning to `Cc1ccc(-n2cccc2/C=C2/NC(=O)N(CC(=O)Nc3cccc(C)c3)C2=O)cc1`, the cell count is 1610 cells.

Regarding `COc1ccccc1N=Nc1c(C)[nH]n(-c2ccccc2)c1=O`, the cell count was 1600 cells.

Molecule `O=C(Nc1cccc(Cn2cccn2)c1)c1cc2c(s1)CCCC2` came in with a cell count of 1560 cells.

Regarding `CCOc1ccc(CCNC(=O)CS(=O)Cc2nc(-c3ccc(OC)c(OC)c3)oc2C)cc1OCC` (stereo not given), the cell count amounted to 1550 cells.

Regarding `COc1ccc(/C=C(\NC(=O)c2cccs2)C(=O)Nc2cccc3ccccc23)cc1OC`, the cell count turned out to be 1560 cells.

On to `CN(C)c1ccc(N=Nc2ccccc2Br)cc1`, for which the cell count stood at 1670 cells.

On to `COc1cc(NC(=O)c2oc3ccccc3c2C)ccc1NC(=O)c1ccco1`, for which the cell count was 1610 cells.

Molecule `Cc1cc(NC(=O)c2cc3ccccc3o2)cc(C)c1OCC(=O)N1CCOCC1` had a cell count of 1680 cells.

The molecule `CCOC(=O)C1CCN(C(=O)C2(NC(=O)Nc3ccccc3Cl)CCCCC2)CC1` returned a cell count of 1570 cells.

`Cc1cc2c(cc1S(=O)(=O)Nc1c(C)cccc1C)n(C)c(=O)c(=O)n2C` registered a cell count of 1600 cells.

As for `CCOc1ncccc1C(=O)OC(C)C(=O)Nc1ccc(CC)cc1` (stereo not given), the cell count was found to be 1640 cells.

Turning to `O=C(Cn1nnc(-c2ccc([N+](=O)[O-])cc2)n1)NNC(=O)c1ccccc1`, the cell count turned out to be 1510 cells.

Take `CSc1nc2ccccc2n1CC(=O)Nc1c(C)cccc1C`: the cell count stood at 1590 cells.

Take `COc1ccc(NC(=S)NC(=O)c2ccccc2Cl)cc1`: the cell count amounted to 1660 cells.

The molecule `CCCCn1c(O)c(/C=C/C=C/C=Nc2ccccc2)sc1=S` yielded a cell count of 1570 cells.

As for `C=CCOc1ccc(-c2nc3c(c(=O)[nH]c(=O)n3Cc3ccccc3)n2CCCOC)cc1`, the cell count was 1500 cells.

The molecule `Cc1cccc(CN2C(=O)N/C(=C/c3cc(C)n(-c4cc(C)ccn4)c3C)C2=O)c1` showed a cell count of 1590 cells.

Molecule `Cc1ccc(OCC(=O)NCc2ccc3c(c2)OCO3)c([N+](=O)[O-])n1` returned a cell count of 1650 cells.

As to `CCOc1ccccc1Nc1nnc(SC(C)C(=O)Nc2nc(-c3ccccc3)cs2)s1` (stereo not given), the cell count turned out to be 1560 cells.

As to `COCCCn1c(SCC(=O)Nc2ccc(NC(=O)c3ccco3)c(OC)c2)nc2ccccc2c1=O`, the cell count worked out at 1620 cells.

As for `Cc1cc(C)c(S(=O)(=O)N2CCOC2CNC(=O)C(=O)NCCc2c[nH]c3ccccc23)c(C)c1` (stereo not given), the cell count came out at 1580 cells.

With `CCOc1ccccc1NC(=O)c1cccc(NC(=O)C2CCCC2)c1`, the cell count came out at 1640 cells.

`CCN1C(=O)c2ccccc2Sc2ccc(C(=O)NCCC(C)C)cc21` yielded a cell count of 1650 cells.

In turn, `COc1cccc(/C=C/C(=O)NCCc2ccc(OC)c(OC)c2)c1` displayed a cell count of 1600 cells.
